In the test the test system is P388 leukemia ip, CD2F1 mice, survival T/C. Kind of test: NCI In Vivo Anticancer Drug Screen. Data for tumor model P388 Leukemia (intraperitoneal) in CD2F1 (CDF1) mice. The following applies: T/C endpoint: median survival time, higher T/C = longer survival.
The mark [1] stands for this setting: dose: 240.0 mg/kg/injection, schedule: Q01DX005 (ip), vehicle: saline with Tween-80.
[2] abbreviates: dose: 25.0 mg/kg/injection, schedule: Q01DX005 (ip), vehicle: Klucel (hydroxypropylcellulose) (HPC).
The mark [3] stands for this setting: dose: 100.0 mg/kg/injection, schedule: Q01DX005 (ip), vehicle: Klucel (hydroxypropylcellulose) (HPC).
The mark [4] stands for this setting: dose: 200.0 mg/kg/injection, schedule: Q01DX005 (ip), vehicle: Klucel (hydroxypropylcellulose) (HPC).
Where [5] appears, read: dose: 100.0 mg/kg/injection, schedule: Q01DX009 (ip), vehicle: saline with Tween-80.
The mark [6] stands for this setting: dose: 200.0 mg/kg/injection, schedule: Q01DX009 (ip), vehicle: saline with Tween-80.

The list is a part of this screen's results and no random one: it gathers tests that were run many times, whatever their T/C, doses with no T/C, and many T/C values between a quarter and a half above the control. Further doses and runs are listed elsewhere. T/C gives the treated animals as a percentage of the vehicle group. Some entries give survivors of the animals treated and no T/C: the source holds a T/C of zero for them, seemingly a mark for toxic or unscored doses. Some survivor counts are full or nearly so, which does not show that the dose was tolerated: the source hardly ever lists a survival T/C far under the control, and the zero likely stands for such cases as well. Counts of survivors are from the toxicity check (mostly the fifth day) where no day follows; animals may have died later. Schedule codes are those of the source, taken here to give the interval after Q, in days (D) or hours (H), and the number of doses after X. Some doses were run more than once; the results are listed from low to high. For survival time, this PubChem deposit counts one and a half times the control or more as active, and values a quarter to a half above the control carry no call in these data; other NCI protocols may use other cut-offs. Some T/C values are followed by the survivors on the day toxicity was checked, most often the fifth; without a count, all were alive then.

In the case of `COc1cccc2c1C(=O)c1c(O)c3c(c(O)c1C2=O)C[C@@](O)(C(=O)CN1CCN(C)CC1)C[C@@H]3OC1CC(N)C(O)C(C)O1` (some centres undefined), the T/C is, setting by setting: (dose: 5.56 mg/kg/injection, schedule: Q01DX009 (ip), vehicle: water) 137 % of control; (dose: 6.25 mg/kg/injection, schedule: Q01DX009 (ip), vehicle: water) 141 % of control; (dose: 8.33 mg/kg/injection, schedule: Q01DX009 (ip), vehicle: water) 144 % of control; (dose: 12.5 mg/kg/injection, schedule: Q01DX009 (ip), vehicle: water) 147 % of control; (dose: 50.0 mg/kg/injection, schedule: Q01DX001 (ip), vehicle: water) 129 % of control; (dose: 100.0 mg/kg/injection, schedule: Q01DX001 (ip), vehicle: water) 137 % of control. The survivor count by setting is: (dose: 50.0 mg/kg/injection, schedule: Q01DX009 (ip), vehicle: water) 6 of 6; (dose: 200.0 mg/kg/injection, schedule: Q01DX001 (ip), vehicle: water) 0 of 6; (dose: 400.0 mg/kg/injection, schedule: Q01DX001 (ip), vehicle: water) 0 of 6.

With `COc1cccc2c1[C@H]1CO[C@H]3C4C[C@H](C(=O)O)C([C@@H](C2)N13)N4C` (some centres undefined), the T/C by setting is: (dose: 1.25 mg/kg/injection, schedule: Q01DX005 (ip), vehicle: water) 125 % of control; (dose: 2.5 mg/kg/injection, schedule: Q01DX005 (ip), vehicle: water) 129, 140, 143 % of control; (dose: 5.0 mg/kg/injection, schedule: Q01DX005 (ip), vehicle: water) 145, 146, 149, 179 % of control. Further, the survivor count is 5 of 6 (dose: 20.0 mg/kg/injection, schedule: Q01DX005 (ip), vehicle: water); 0 of 6 and 4 of 6 (dose: 40.0 mg/kg/injection, schedule: Q01DX005 (ip), vehicle: water).

In the case of `C=CC1(OC)CC1CO` (centres undefined), the survivor count (dose: 400.0 mg/kg/injection, schedule: Q01DX001 (ip), vehicle: Klucel (hydroxypropylcellulose) (HPC)) was 2 of 6.

Take `CC(=O)SSC12CC3CC(CC(C3)C1)C2`: the survivor count under setting [1] is 3 of 6.

Turning to `COc1ccc(NC(=S)NN)cc1`, the survivor count by setting is: (dose: 150.0 mg/kg/injection, schedule: Q01DX009 (ip), vehicle: saline with Tween-80) 2 of 6; (dose: 200.0 mg/kg/injection, schedule: Q04DX003 (ip), vehicle: saline with Tween-80) 5 of 6; (dose: 400.0 mg/kg/injection, schedule: Q04DX003 (ip), vehicle: saline with Tween-80) 3 of 6.

On to `CN=C(c1ccc(NC(=O)c2ccc(C(=O)Nc3ccc(C(=NC)N4CCOCC4)cc3)cc2)cc1)N1CCOCC1`, for which the survivor count runs as follows: under setting [2], 0 of 6; (dose: 50.0 mg/kg/injection, schedule: Q01DX005 (ip), vehicle: Klucel (hydroxypropylcellulose) (HPC)) 0 of 6; under setting [3], 0 of 6; under setting [4], 0 of 6.

For `Cc1ccnc2cc(N(C)C)ccc12`, the survivor count is reported as 0 of 6 (dose: 120.0 mg/kg/injection, schedule: Q01DX005 (ip), vehicle: Klucel (hydroxypropylcellulose) (HPC)) and 0 of 6 (dose: 240.0 mg/kg/injection, schedule: Q01DX005 (ip), vehicle: Klucel (hydroxypropylcellulose) (HPC)).

With `CCC1C[N+]2(C)CCc3cc(OC)c(OC)cc3C2CC1=O` (centres undefined), the survivor count under setting [5] is listed as 2 of 6 and the survivor count under setting [6] is 0 of 6.

For `CC1(O)CC23CC(O)C4(O)C(CC(O)C4(C)C)C(C)(O)C2CCC1C3O` (centres undefined), the survivor count (dose: 1.0 mg/kg/injection, schedule: Q01DX009 (ip), vehicle: Klucel (hydroxypropylcellulose) (HPC)) is recorded as 1 of 6.

Consider `[CH3][Sn]([CH3])([S]c1nc(O)cc(=O)[nH]1)[S]c1nc(O)cc(=O)[nH]1`, for which the survivor count is 6 of 6 under setting [2], 1 of 6 under setting [3] and 0 of 6 under setting [4].

For the compound `O=c1c2cnc(-c3ccccc3)nc2oc2ccc3ccccc3c12`, the survivor count under setting [5] is recorded as 6 of 6 and the survivor count under setting [6] was 6 of 6.

`OCCN1OCCCC1c1ccccc1` (centres undefined): under setting [6], the survivor count is 5 of 6.

Regarding `Nc1nc(N)c(SC(F)(F)F)c(Cl)n1`, the survivor count under setting [1] is 1 of 6.

In the case of `COc1nc(C(Br)Br)c([N+](=O)[O-])c(N2CCOCC2)n1`, under setting [4], the survivor count was 4 of 6.

`CN(N=O)C1=NC2(CCCCC2)P(=O)(NNc2ncccn2)O1` (centres undefined): the survivor count (dose: 240.0 mg/kg/injection, schedule: Q01DX005 (ip), vehicle: saline) was 0 of 6.

On to `CCC(C)C(NC(=O)C(C)Oc1cc(Cl)c(Cl)cc1Cl)C(=O)O` (centres undefined), for which, where the note is “dose: 200.0 mg/kg/injection, schedule: Q01DX005 (ip), vehicle: saline with Tween-80”, the survivor count is 0 of 5.

Consider `COc1ccc(OC)c2c1nc(CBr)n2C`, for which the survivor count is, setting by setting: (dose: 65.0 mg/kg/injection, schedule: Q01DX005 (ip), vehicle: DMSO) 1 of 6; (dose: 130.0 mg/kg/injection, schedule: Q01DX005 (ip), vehicle: DMSO) 0 of 6.

Take `CP(C)(=S)[S][Sn]([CH3])([CH3])[S]P(C)(C)=S`: the T/C (dose: 50.0 mg/kg/injection, schedule: Q01DX005 (ip), vehicle: Klucel (hydroxypropylcellulose) (HPC), evaluated on day 20) is 106 [4 of 6 alive], 120 [5 of 6 alive], 121 % of control [5 of 6 alive] and the T/C (dose: 50.0 mg/kg/injection, schedule: Q01DX005 (ip), vehicle: Klucel (hydroxypropylcellulose) (HPC), evaluated on day 30) was 132 % of control. Also, the survivor count is, setting by setting: under setting [3], 5 of 6; under setting [4], 6 of 6.

The values are drawn from PubChem BioAssay AID330 (DTP/NCI, 2004).
